Measurements taken from patent publication US4206199 (dated 1980).
Non-standard residues stand in square brackets, D forms with d. *: point of attachment. Met(O) = CS(=O)CC[C@H](N)C(=O)O; Nle = CCCC[C@H](N)C(=O)O; Cbz = O=C(OCc1ccccc1)*; Boc = CC(C)(C)OC(=O)*; OBn = c1ccc(CO*)cc1

Assay: general procedure: solution-phase peptide synthesis; DCC/HONB (ONB active esters)
Conditions: coupling step
With Boc-L[Nle]NT-OBn the step yield was 83.8%.
Work on “Boc-Asp(OBzl)-Ser-Arg(MBS)-Arg(MBS)-Ala-OH” yielded a step yield of 51.5%.
In the case of “Boc-Gln-Asp(OBzl)-Phe-Val-Gln-Trp-Leu-Met(O)-Asn-Thr-OBzl”, the step yield is reported as 76.8%.
“Boc-Asp(OBzl)-Ser-Arg(MBS)-Arg(MBS)-Ala-Gln-Asp(OBzl)-Phe-Val-Gln-Trp-Leu-Met(O)-Asn-Thr-OBzl” gave a step yield of 61.1%.
With Boc-L[Met(O)]NT-OBn the step yield was 83.4%.
Boc-Ser-Arg(MBS)-Arg(MBS)-Ala-OBu^t showed a step yield of 79.0%.
In the case of Boc-QD(OBn)FVQW-OH, the step yield is reported as 82.6%.
For Cbz-FVQW-OH, the step yield was 84.5%.
With Boc-D(OBn)FVQW-OH the step yield was 58.1%.
